Test results reported in PubChem BioAssay AID504467 (National Center for Advancing Translational Sciences (NCATS), 2011).
About 7,700 (2.3%) of roughly 330,000 compounds were called active. Inconclusive results, whose numbers are uncertain, are shown with a selection of clear calls. Calls follow the shape of the dose curve; as a rule, active = well fitted inhibition curve with a large enough effect; inconclusive = small, poorly fitted or top-dose-only effect, or effect the other way; inactive = flat fitted curve, though single readings scatter. Where the call is inconclusive, the potency comes from a doubtful curve fit.

Test: qHTS screen for small molecules that inhibit ELG1-dependent DNA repair in human embryonic kidney (HEK293T) cells expressing luciferase-tagged ELG1; also: nearly all actives have a fitted effect of over 55% in size
Details: HEK293T ELG1-luciferase reporter, luminescence, 16 h, DNA damage induced by 5-fluorouridine; series mostly up to 46.1 µM
In short: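 HEK293T cells expressing luciferase-tagged ELG1 (2,000/well) received 5-Fluorouridine plus compound or DMSO for 16 hr at 37 °C. Luciferase was read by ONE-Glo luminescence after 30 min at room temperature.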
Potency is read from the fitted curve at half-maximal effect.

SMILES | Potency
CCCCCC(=O)NNC(=S)NC(=O)c1cccc([N+](=O)[O-])c1 | inactive
O=C(O)c1cccc(NS(=O)(=O)c2ccc(-c3ccc(S(=O)(=O)Nc4cccc(C(=O)O)c4)cc3)cc2)c1 | inconclusive: 23.1 µM [activator, partial curve, poor fit]
COc1ccc(CC(=O)Nc2sc3c(c2C(N)=O)CCCC3)cc1OC | inconclusive: 18.3 µM [inhibitor, partial curve]
N=c1sccn1CC(=O)Nc1ccc(Cl)c(S(=O)(=O)N2CCOCC2)c1 | inconclusive: 16.4 µM [inhibitor, partial curve, poor fit]
CSc1nnc(-c2ccccc2)n1C | inactive
COc1ccccc1C(=O)Nc1ccccc1N1CCN(S(C)(=O)=O)CC1 | inactive
NC(=S)N/N=C/c1cccc(/C=N/NC(N)=S)c1 | inactive
CCCN(Cc1ccccc1)C(=S)Nc1ccc(OCC)cc1 | inactive
O=C(NCc1ccc(F)cc1)c1cccc2c1C(=O)N(Cc1cccnc1)C2 | inconclusive: 25.9 µM [inhibitor, single point]
COC(=O)Cn1cc(C(=O)OC)c2ccccc21 | inconclusive: 29.1 µM [activator, single point]
COc1ccc2cc(Br)ccc2c1CC(=O)NCC1CCCO1 (centres undefined) | inconclusive: 20.6 µM [inhibitor, single point]
CCC1Sc2ccc(S(=O)(=O)CCC(=O)Nc3ccc(C(=O)OC)cc3)cc2NC1=O (centres undefined) | inactive
CNc1ccccc1C(C)(C)c1cn(-c2ccc([N+](=O)[O-])cc2)nn1 | inactive
COc1ccc(S(=O)(=O)N2CCCN(CC(=O)Nc3ccc4c(c3)OCO4)CC2)cc1 | inconclusive: 32.6 µM [inhibitor, partial curve, poor fit]
CSc1nsc(SC)c1C(=O)Nc1ccc(C(C)(C)C)cc1 | active: 18.3 µM
CN(C)Cc1c(C(=O)N/N=C/CCc2ccccc2)nnn1-c1nonc1N | inconclusive: 18.3 µM [activator, partial curve, poor fit]
Fc1ccc(Nc2ncnc3sc4c(c23)CCC4)cc1F | inconclusive: 29.1 µM [inhibitor, partial curve, poor fit]
COc1ccc2oc(=O)c(NC(=O)C3CCCCC3)cc2c1 | inconclusive: 13 µM [activator, single point]
Cc1cc(C)cc(N(C(=O)CCC(=O)Nc2cc(C)on2)C(C(=O)NC2CCCC2)c2ccco2)c1 (centres undefined) | inconclusive: 23.1 µM [inhibitor, partial curve]
Oc1ccccc1C(=S)N1CCN(c2cccc(Cl)c2)CC1 | inactive
Cc1ccc(NC(=O)CSc2nnc(CNC(=O)c3ccco3)n2C)cc1C | inactive
Cc1ccc2nc(-c3ccc(N4C(=N)SC5CS(=O)(=O)CC54)cc3)sc2c1 (centres undefined) | inconclusive: 9.2 µM [activator, partial curve]

SMILES | Potency
CC(=O)Nc1ccc(S(=O)(=O)N2CCc3cc4c(cc3C2)OCCCO4)cc1 | inconclusive: 1.16 µM [inhibitor, full curve, poor fit]
O=C(Nc1ccccc1Cl)/C(Cl)=C(\Cl)S(=O)c1ccccc1 (centres undefined) | active: 9.2 µM
CCOC(=O)NC(=O)CSc1nc(C)cc(C)c1C#N | inconclusive: 2.59 µM [activator, full curve]
Nc1n[nH]c(N)c1N=Nc1ccc(Cl)cc1Cl | inconclusive: 16.4 µM [activator, partial curve, poor fit]
CCc1nc(NCCO)c(C#N)c2c1CSC(C)(C)C2 | inconclusive: 29.1 µM [activator, single point]
NC(=O)c1c(NC(=O)c2ccccc2Cl)sc2c1CCC2 | inconclusive: 16.4 µM [activator, partial curve]
CN(Cc1ccccc1)c1ccc(C(CC(N)=O)NC(=O)c2ccc(Br)cc2)cc1[N+](=O)[O-] (centres undefined) | inconclusive: 29.1 µM [inhibitor, single point]
Cc1ccc(C(CNS(=O)(=O)c2ccc(F)cc2C)N2CCN(C)CC2)cc1 (centres undefined) | inconclusive: 11.6 µM [inhibitor, single point]
CCOC(=O)C1(CCc2ccccc2)CCN(Cc2cccc3nccnc23)CC1 | inconclusive: 14.6 µM [inhibitor, partial curve]
Cc1ccc(Nc2nnc(-c3ccc(N4CCOCC4)c([N+](=O)[O-])c3)c3ccccc23)cc1 | inconclusive: 16.4 µM [inhibitor, partial curve]
CC(=O)NC(CCS(C)(=O)=O)C(=O)Nc1nc(C)cs1 (centres undefined) | inconclusive: 20.6 µM [activator, single point]
COc1cccc(COC(=O)C2CCN(C(=O)c3ccccc3C)CC2)c1OC | inconclusive: 1.64 µM [inhibitor, full curve]
CCOc1ccccc1NC(=O)NC(C)c1ccc2c(c1)OCO2 (centres undefined) | inactive
Cc1ccc(S(=O)(=O)N2CCCC(CCC(=O)NCc3ccccc3F)C2)s1 (centres undefined) | inconclusive: 29.1 µM [inhibitor, single point]
CC(=O)c1ccc(N2CCN(C(C)C(=O)NC3CCCc4ccccc43)CC2)cc1 (centres undefined) | inactive
COc1ccc(NS(=O)(=O)c2c(C(=O)N3CCCCCC3)c(C)n(C)c2C)cc1 | inactive
CCN(CC)S(=O)(=O)c1cc(C(=O)NC2CCCCC2)ccc1C | inconclusive: 4.11 µM [activator, partial curve]
Cc1ccc(OC(=O)Nc2ccccc2)cc1 | inconclusive: 29.1 µM [activator, single point]
Cc1ccc(/C=N/Nc2ncnc3nc[nH]c23)cc1 | inconclusive: 20.6 µM [activator, partial curve]
COc1cc(C(=O)NNC(=S)Nc2ccc(S(N)(=O)=O)cc2)cc(OC)c1OC | inconclusive: 20.6 µM [inhibitor, single point]
Cc1cccc(-c2noc(-c3cc4ccccc4oc3=O)n2)c1 | inconclusive: 9.2 µM [activator, partial curve]
COc1ccc(-n2ncc(N(C)n3cccc3)c(Cl)c2=O)cc1 | inconclusive: 5.17 µM [activator, partial curve]

Fetched by compound from the list above:
SMILES | Potency
COc1ccc2cc(Br)ccc2c1CC(=O)NCC1CCCO1 (centres undefined) | inconclusive: 20.6 µM [inhibitor, single point]
CCCCCC(=O)NNC(=S)NC(=O)c1cccc([N+](=O)[O-])c1 | inactive
